From PMC5426686
Results are given in words; binding and its absence hold for the method and conditions named. In cells and extracts the contact can be indirect. Some binding calls cover weakened binding; strength is not graded here.

Chains of the proteins cited; added tags and fusions are not shown.
UniProt Q7TPK6: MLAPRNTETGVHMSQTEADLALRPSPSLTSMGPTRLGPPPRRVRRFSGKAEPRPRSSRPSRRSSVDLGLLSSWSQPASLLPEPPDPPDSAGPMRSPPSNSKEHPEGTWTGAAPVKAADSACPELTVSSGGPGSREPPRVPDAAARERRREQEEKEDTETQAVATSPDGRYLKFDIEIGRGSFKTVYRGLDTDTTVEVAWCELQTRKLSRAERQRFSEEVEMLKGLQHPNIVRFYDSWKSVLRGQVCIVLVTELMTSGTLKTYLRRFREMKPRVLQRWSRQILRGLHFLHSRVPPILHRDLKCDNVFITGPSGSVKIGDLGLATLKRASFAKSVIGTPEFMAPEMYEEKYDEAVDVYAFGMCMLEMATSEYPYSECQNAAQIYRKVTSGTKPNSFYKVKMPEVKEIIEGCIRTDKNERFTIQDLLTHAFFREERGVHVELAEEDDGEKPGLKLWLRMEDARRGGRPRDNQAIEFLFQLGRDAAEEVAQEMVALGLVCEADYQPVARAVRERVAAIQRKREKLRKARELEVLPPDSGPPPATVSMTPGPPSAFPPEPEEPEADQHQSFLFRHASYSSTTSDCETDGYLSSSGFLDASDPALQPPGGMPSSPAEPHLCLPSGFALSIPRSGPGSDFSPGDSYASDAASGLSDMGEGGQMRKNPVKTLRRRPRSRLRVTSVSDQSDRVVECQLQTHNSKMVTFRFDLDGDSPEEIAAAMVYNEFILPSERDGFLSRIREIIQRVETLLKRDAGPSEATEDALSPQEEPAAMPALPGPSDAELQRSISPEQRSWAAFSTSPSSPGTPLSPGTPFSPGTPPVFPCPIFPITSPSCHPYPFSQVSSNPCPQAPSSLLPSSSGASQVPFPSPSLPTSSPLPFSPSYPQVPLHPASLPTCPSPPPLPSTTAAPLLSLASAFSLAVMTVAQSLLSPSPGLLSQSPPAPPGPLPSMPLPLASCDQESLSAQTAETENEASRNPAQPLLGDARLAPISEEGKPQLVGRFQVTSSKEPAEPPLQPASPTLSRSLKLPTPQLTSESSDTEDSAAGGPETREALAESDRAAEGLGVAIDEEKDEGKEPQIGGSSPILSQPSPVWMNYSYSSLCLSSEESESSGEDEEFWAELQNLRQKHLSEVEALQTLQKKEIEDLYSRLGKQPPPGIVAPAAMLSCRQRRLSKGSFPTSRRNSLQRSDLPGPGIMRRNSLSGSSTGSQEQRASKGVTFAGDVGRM
UniProt Q06226: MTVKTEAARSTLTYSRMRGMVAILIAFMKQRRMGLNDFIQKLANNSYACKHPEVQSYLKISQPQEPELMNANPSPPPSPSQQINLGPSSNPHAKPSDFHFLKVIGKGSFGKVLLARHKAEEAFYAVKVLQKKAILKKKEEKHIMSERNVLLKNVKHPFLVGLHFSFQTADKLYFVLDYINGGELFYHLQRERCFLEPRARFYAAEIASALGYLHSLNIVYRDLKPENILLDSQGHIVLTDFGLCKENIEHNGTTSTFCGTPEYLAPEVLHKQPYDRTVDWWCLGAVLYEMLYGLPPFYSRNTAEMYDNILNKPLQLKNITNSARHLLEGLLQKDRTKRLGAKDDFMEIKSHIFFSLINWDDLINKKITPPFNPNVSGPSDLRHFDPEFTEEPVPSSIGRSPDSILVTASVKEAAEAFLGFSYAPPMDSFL
UniProt A0ACM8Q5W3: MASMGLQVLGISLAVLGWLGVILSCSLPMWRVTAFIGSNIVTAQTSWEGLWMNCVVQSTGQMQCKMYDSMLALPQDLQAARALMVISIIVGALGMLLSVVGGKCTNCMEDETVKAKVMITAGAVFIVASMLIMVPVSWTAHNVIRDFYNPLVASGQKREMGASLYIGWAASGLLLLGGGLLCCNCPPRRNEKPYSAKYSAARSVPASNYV

Key:
[1] = molecular target: with-no-lysine kinase 4 (rat (endogenous in distal tubules of Wistar rats)) (UniProt Q7TPK6); experiment: co-IP; endogenous proteins in extracts (1 mg, RIPA buffer) of distal tubules isolated from rats of four groups (control, diabetic by streptozotocin, diabetic + spironolactone, spironolactone); immunoprecipitating antibody (anti-cldn-4, anti-cldn-8 or anti-WNK4) bound to protein G-agarose, overnight at 4°C, washed thrice with RIPA buffer; immunoblot; irrelevant antibody as negative control
[2] = molecular target: claudin-4 (rat (endogenous in distal tubules of Wistar rats)); experiment: as above

| binding [1] | binding [2] | Substance |
| --- | --- | --- |
| binds |  | serum and glucocorticoid-induced kinase 1 (from UniProt Q06226 1-430) (enzyme) |
| binds |  | claudin-4 (from UniProt A0ACM8Q5W3 1-210) |
|  | binds | with-no-lysine kinase 4 (from UniProt Q7TPK6 1-1222) (enzyme) |
